Source: PMC5688660
These are yes or no findings as the source states them, for the method shown. Binding seen in cells or lysates may run through a third protein. Some binding calls cover weakened binding; strength is not graded here. For some of these results: Tags and fused reporters may be left off the sequences shown.

Protein sequences, listed by entry. Tags and fused reporters are not part of them.
UniProt Q7Z4L9: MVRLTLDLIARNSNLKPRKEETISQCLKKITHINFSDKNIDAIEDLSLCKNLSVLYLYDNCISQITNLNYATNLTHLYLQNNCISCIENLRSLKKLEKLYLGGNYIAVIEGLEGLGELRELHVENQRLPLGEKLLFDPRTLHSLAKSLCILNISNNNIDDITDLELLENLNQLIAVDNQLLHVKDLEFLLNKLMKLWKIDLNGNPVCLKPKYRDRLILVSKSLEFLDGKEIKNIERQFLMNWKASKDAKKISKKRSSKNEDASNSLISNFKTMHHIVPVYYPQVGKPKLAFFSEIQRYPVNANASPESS

Tests used:
[1] = target: T1, Aurora A, endogenous in ARPE-19 cells (human (endogenous in ARPE-19)) (UniProt O14965); test: co-IP; untransfected ARPE-19 cells; immunoprecipitated with anti-AurA and anti-Nek2 antibodies and probed for PPP1R42
T1 sequence: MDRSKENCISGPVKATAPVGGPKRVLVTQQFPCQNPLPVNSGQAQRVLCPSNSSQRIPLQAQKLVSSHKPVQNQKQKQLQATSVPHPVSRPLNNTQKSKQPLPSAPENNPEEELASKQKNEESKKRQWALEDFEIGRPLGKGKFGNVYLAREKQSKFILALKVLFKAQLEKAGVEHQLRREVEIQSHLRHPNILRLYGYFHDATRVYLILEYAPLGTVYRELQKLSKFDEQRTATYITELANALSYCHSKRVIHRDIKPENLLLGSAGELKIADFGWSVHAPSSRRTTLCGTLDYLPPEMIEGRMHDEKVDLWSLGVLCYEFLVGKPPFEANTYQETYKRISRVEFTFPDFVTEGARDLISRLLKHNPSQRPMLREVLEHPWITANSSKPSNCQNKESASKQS

[2] = target: T2, Never in mitosis kinase-2, endogenous in ARPE-19 cells (human (endogenous in ARPE-19)) (UniProt P51955); test: as above
T2 sequence: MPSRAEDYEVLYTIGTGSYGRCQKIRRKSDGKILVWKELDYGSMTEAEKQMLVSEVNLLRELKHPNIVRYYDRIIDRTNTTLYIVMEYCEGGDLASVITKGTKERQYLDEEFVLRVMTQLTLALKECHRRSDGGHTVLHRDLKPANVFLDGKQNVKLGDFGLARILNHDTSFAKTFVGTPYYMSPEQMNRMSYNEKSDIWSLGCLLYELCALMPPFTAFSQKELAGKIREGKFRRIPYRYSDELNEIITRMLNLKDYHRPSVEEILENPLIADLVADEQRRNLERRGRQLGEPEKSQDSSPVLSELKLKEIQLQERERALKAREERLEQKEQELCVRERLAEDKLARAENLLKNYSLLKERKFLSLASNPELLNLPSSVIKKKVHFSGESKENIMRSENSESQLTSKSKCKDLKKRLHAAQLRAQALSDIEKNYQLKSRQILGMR

[3] = target: T3, Aurora A, myc-tagged (AurA-myc) (UniProt O14965); test: co-IP; ARPE-19 cells cotransfected with AurA and Nek2 plasmids; lysates immunoprecipitated with AurA antibodies, Nek2 antibodies or no antibody and probed for AurA or Nek2
T3 sequence: T1 sequence

[4] = target: Phosphoprotein phosphatase 1 regulatory subunit 42, FLAG-tagged (PPP1R42-FLAG) (UniProt Q7Z4L9); test: co-IP; PPP1R42 coexpressed with Nek2 or AurA in ARPE-19 cells (cycling, serum starved, serum added back); precleared lysate (1 mg protein) immunoprecipitated with affinity purified anti-PPP1R42 antibody and anti-rabbit IgG beads, or no antibody; probed for Nek2 or AurA
[5] = target: T4, Never in mitosis kinase-2, myc-tagged (Nek2-myc; Nek2A expression plasmid) (UniProt P51955); test: co-IP; ARPE-19 cells cotransfected with AurA and Nek2 plasmids; lysates immunoprecipitated with AurA antibodies, Nek2 antibodies or no antibody and probed for AurA or Nek2
T4 sequence: T2 sequence

[6] = target: T1, Aurora A, endogenous in ARPE-19 cells (human (endogenous in ARPE-19)); test: co-IP; untransfected ARPE-19 cell lysates immunoprecipitated with AurA antibodies, Nek2 antibodies or no antibody and probed for AurA or Nek2

Molecule: Phosphoprotein phosphatase 1 regulatory subunit 42, endogenous in ARPE-19 cells (from UniProt Q7Z4L9 1-309)
- binding [1]: binds
- binding [2]: binds

B1: Never in mitosis kinase-2, myc-tagged (Nek2-myc; Nek2A expression plasmid) (enzyme, UniProt P51955 1-445)
chain: T2 sequence
- binding [3]: binds
- binding [4]: binds

B2: Aurora A, myc-tagged (AurA-myc) (enzyme, UniProt O14965 1-403)
chain: T1 sequence
- binding [5]: binds
- binding [4]: binds

B3: Never in mitosis kinase-2, endogenous in ARPE-19 cells (enzyme, UniProt P51955 1-445)
chain: T2 sequence
- binding [6]: binds
